Some of the results follow. Most values lie at the level of the controls, where differences are scatter.

Sequences of proteins named here, by UniProt entry; tags and fusion partners are left off. A change or cut given only in a name is not applied to a line headed by its entry.
UniProt Q9CQE2: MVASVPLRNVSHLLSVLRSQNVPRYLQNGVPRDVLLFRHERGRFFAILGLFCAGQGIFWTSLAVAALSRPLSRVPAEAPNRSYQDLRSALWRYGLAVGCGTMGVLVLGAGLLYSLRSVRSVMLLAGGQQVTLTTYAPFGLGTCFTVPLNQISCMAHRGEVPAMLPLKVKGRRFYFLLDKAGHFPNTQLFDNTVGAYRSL
UniProt Q9CQ69: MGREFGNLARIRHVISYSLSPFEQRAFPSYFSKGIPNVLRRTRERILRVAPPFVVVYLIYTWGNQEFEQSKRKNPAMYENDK
UniProt Q9CPR7: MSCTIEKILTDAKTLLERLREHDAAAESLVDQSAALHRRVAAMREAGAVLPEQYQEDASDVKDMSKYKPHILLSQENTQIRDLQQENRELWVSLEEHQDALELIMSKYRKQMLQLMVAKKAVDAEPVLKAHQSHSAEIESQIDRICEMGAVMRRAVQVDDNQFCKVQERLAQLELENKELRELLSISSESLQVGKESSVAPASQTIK
UniProt Q9CQ33: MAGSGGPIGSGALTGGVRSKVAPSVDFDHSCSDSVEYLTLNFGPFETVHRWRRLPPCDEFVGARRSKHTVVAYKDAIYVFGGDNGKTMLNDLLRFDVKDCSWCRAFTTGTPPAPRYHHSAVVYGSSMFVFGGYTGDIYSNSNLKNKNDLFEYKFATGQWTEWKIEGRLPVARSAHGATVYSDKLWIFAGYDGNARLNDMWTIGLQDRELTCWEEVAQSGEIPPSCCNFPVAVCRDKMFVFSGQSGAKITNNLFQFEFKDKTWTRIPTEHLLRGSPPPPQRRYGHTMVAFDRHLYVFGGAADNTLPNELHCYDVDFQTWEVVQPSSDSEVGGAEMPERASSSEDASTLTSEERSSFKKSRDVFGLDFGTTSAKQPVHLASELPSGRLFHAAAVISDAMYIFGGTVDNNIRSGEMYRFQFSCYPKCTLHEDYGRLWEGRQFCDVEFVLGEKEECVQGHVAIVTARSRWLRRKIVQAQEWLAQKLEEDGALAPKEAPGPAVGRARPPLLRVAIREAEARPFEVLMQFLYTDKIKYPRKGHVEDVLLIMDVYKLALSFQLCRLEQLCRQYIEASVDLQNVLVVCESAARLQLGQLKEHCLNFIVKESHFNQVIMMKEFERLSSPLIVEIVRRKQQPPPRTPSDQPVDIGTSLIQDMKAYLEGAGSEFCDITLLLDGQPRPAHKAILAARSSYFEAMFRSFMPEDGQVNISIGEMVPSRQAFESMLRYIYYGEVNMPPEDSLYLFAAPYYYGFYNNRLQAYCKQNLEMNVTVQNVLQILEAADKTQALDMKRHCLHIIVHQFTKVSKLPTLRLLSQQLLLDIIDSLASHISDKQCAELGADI
UniProt Q9CQT7: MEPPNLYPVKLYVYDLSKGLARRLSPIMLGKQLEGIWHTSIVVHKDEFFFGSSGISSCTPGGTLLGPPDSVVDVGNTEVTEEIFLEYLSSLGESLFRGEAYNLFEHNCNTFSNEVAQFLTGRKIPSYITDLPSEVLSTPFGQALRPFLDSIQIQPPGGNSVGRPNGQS
UniProt Q9CPW9: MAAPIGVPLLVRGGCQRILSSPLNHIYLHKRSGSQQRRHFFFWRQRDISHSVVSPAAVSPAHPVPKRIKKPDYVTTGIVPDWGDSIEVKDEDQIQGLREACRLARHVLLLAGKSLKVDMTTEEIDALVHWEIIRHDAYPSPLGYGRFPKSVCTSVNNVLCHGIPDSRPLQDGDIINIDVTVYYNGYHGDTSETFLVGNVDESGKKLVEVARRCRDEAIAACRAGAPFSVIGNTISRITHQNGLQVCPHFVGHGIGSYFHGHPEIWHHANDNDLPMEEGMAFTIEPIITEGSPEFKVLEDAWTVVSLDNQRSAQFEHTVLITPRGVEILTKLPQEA
UniProt Q9CQY6: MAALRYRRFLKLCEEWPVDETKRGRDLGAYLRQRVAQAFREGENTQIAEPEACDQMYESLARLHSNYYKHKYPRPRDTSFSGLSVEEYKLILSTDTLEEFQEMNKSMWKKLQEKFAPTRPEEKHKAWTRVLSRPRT
UniProt Q9CQ43: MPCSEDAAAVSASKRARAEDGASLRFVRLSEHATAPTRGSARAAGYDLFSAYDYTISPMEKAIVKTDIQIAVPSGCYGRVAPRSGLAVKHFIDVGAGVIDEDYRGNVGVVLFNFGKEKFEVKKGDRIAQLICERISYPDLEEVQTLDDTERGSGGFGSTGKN
UniProt Q9CQZ1: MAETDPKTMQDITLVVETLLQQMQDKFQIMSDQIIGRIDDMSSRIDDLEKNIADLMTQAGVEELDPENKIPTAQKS
UniProt Q9CQ02, whole entry: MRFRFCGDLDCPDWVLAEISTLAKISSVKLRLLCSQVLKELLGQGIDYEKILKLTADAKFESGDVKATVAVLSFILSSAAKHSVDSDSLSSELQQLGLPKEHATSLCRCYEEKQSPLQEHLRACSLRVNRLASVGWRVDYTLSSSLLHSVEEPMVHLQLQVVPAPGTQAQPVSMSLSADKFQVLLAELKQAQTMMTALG
UniProt Q99M04: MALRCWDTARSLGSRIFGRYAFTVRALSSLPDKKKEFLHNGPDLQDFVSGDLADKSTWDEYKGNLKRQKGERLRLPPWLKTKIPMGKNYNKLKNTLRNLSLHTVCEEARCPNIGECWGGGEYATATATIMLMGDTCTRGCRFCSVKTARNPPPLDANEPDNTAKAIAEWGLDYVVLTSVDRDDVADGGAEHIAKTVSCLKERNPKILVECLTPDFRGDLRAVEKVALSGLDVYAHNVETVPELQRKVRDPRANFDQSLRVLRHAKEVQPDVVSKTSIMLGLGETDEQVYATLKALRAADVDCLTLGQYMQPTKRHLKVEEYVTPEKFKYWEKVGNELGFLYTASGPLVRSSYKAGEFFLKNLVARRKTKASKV
UniProt Q9CQD1: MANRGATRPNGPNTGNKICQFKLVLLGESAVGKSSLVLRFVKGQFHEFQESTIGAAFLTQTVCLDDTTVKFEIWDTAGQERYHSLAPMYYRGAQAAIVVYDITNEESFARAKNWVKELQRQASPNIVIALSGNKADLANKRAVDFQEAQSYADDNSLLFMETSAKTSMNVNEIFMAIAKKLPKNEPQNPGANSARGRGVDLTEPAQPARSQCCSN
UniProt Q9CQ06, whole entry: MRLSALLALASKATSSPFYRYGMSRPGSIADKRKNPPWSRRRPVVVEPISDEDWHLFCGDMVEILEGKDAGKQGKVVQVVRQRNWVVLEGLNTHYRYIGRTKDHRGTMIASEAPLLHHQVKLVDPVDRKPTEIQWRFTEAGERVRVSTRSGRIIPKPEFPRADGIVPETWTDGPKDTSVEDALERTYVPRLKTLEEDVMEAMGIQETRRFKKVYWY
UniProt Q9CPP0: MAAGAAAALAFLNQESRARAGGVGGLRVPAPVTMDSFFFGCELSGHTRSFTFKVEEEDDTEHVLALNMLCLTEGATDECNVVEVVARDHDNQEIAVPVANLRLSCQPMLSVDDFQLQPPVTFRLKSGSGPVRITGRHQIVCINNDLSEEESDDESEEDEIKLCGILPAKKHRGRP
UniProt Q99N16: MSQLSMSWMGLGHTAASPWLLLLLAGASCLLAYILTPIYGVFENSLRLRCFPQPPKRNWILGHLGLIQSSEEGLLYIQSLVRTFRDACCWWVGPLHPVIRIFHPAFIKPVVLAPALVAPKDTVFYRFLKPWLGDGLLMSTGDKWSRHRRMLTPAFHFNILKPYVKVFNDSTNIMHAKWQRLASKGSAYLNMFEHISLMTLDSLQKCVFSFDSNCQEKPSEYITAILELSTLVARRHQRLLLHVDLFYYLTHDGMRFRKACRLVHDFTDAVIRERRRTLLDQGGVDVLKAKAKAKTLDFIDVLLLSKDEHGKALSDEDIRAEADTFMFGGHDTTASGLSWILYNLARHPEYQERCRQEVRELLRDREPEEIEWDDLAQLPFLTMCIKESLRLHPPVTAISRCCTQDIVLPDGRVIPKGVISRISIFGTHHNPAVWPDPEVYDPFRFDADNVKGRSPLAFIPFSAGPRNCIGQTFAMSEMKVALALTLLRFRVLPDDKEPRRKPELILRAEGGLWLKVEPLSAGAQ
UniProt Q9CQN6: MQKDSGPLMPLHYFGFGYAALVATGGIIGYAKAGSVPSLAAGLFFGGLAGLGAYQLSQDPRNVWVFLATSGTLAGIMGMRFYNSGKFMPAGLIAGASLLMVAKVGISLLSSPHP
UniProt Q9CQQ8: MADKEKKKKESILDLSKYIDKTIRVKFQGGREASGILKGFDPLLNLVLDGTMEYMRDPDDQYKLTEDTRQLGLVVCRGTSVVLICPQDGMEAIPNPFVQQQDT
UniProt Q9CQ88: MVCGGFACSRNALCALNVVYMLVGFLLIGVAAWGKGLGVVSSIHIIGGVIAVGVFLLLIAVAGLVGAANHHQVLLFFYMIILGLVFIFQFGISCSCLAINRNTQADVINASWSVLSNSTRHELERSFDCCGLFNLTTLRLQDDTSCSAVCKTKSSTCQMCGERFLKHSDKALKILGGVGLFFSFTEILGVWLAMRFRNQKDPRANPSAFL
UniProt Q99MI1: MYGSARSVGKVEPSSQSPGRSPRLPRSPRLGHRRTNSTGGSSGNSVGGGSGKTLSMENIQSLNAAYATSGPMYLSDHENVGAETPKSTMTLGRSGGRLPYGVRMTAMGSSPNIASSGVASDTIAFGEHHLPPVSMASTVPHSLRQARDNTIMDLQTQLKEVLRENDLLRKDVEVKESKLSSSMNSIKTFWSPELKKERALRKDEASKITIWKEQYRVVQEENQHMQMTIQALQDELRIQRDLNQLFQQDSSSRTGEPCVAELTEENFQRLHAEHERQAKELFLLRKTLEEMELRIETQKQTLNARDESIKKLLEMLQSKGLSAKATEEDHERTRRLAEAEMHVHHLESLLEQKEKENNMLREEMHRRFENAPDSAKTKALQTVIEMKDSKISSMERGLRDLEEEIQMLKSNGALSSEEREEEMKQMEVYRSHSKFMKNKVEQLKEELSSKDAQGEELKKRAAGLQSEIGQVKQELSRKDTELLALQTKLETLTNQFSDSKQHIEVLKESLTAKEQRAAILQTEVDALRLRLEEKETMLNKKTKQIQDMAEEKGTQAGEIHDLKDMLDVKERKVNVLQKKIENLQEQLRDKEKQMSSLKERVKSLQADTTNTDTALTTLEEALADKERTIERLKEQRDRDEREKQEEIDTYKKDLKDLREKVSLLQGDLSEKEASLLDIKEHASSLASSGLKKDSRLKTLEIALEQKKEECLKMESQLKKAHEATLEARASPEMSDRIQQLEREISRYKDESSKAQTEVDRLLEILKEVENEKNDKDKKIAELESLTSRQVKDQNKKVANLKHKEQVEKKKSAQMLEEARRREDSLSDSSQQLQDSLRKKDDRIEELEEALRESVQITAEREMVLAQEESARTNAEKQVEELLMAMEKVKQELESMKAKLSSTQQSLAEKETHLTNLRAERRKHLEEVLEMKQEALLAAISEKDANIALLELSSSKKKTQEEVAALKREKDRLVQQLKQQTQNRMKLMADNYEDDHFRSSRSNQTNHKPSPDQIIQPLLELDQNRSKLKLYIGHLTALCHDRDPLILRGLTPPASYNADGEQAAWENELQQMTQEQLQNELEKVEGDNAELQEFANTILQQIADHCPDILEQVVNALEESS
UniProt Q9CQJ6: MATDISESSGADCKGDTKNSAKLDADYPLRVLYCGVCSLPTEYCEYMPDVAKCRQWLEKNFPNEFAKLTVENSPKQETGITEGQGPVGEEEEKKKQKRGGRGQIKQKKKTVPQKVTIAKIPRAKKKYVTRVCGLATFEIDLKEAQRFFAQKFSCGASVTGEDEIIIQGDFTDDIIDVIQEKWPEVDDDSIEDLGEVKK
UniProt Q9CQ90: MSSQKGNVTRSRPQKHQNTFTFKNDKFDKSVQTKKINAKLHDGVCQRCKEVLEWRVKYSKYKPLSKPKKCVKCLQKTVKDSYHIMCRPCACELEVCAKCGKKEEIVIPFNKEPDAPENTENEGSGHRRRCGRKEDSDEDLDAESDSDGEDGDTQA
UniProt Q9CQ73: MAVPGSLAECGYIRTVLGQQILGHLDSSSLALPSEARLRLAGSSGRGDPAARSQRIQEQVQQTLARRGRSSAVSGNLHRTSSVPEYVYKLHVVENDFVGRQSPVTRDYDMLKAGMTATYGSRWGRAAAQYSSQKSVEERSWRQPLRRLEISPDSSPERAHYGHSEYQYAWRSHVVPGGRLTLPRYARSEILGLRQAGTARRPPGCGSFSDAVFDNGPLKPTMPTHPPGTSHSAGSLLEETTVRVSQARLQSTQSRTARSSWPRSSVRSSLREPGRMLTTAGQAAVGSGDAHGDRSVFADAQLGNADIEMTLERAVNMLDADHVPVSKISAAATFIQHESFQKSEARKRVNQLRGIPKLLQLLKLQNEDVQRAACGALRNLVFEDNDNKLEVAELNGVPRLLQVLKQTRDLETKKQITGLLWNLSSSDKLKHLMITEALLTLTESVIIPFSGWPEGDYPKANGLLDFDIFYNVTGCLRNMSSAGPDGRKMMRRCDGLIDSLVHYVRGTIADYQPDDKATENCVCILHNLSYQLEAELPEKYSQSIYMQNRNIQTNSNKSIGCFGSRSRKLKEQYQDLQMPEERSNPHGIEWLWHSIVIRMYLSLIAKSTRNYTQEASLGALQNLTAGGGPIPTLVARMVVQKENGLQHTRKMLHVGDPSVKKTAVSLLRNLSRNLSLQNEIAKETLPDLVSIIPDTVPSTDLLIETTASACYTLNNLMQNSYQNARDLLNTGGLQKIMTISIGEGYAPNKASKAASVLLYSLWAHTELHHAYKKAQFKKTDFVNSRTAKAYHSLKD

Compound in the assay: CN[C@@H]1C[C@H]2O[C@@](C)([C@@H]1OC)n1c3ccccc3c3c4c(c5c6ccccc6n2c5c31)C(=O)NC4 [staurosporine]
As to the kind of experiment: log2 fold change of tryptic peptide abundance, ligand vs vehicle (limited proteolysis) (log2 ratio); higher = more trypsin-susceptible (destabilized). The settings on record: ligand concentration: 20 uM; sample: mouse liver crude lysate; replicate design: treated separately.
Regarding “UniProt Q9CQE2 (peptide sequence: NVSHLLSVLR, peptide start residue: 9)”, the log2 fold change was 0.207.
To “UniProt Q9CQ69 (peptide sequence: HVISYSLSPFEQR, peptide start residue: 13)” belongs -0.204; to “UniProt Q9CPR7 (peptide sequence: LREHDAAAESLVDQSAALHR, peptide start residue: 19)”, -0.254.
As for “UniProt Q9CQ33 (peptide sequence: DVFGLDFGTTSAK, peptide start residue: 360)”, the figure is 0.27; as for “UniProt Q9CQT7 (peptide sequence: RLSPIMLGK, peptide start residue: 23)”, 0.165.
To “UniProt Q9CPW9 (peptide sequence: DISHSVVSPAAVSPAHPVPK, peptide start residue: 47)” belongs 0.0911; to “UniProt Q9CQY6 (peptide sequence: GRDLGAYLR, peptide start residue: 24)”, 0.488.
Take “UniProt Q9CPY4 (peptide sequence: ALVRECLAETER, peptide start residue: 112)”: the log2 fold change amounted to 0.137.
To “UniProt Q9CQ43 (peptide sequence: HFIDVGAGVIDEDYR, peptide start residue: 90)” belongs -0.189; to “UniProt Q99NH0 (peptide sequence: NKENFELQAAQEK, peptide start residue: 1502)”, 0.547; to “UniProt Q9CQA9 (peptide sequence: VGSQPLPGKPECR, peptide start residue: 65)”, -0.0938.
As for “UniProt Q9CQZ1 (peptide sequence: FQIMSDQIIGR, peptide start residue: 27)”, the figure is 0.0333; as for “UniProt Q9CR25 (peptide sequence: NWQGLEPR, peptide start residue: 456)”, -0.0657.
To “UniProt Q9CQ02 (peptide sequence: QSPLQEHLR, peptide start residue: 114)” belongs 0.253; to “UniProt Q99M04 (peptide sequence: VEEYVTPEKFK, peptide start residue: 318)”, 0.569.
For the target “UniProt Q9CQD1 (peptide sequence: GRGVDLTEPAQPAR, peptide start residue: 196)”, the log2 fold change is -0.578.
To “UniProt Q9CQ06 (peptide sequence: ATSSPFYR, peptide start residue: 13)” belongs 0.31; to “UniProt Q9CQC5 (peptide sequence: LSCEPVMEEK, peptide start residue: 143)”, 0.123; to “UniProt Q99N85 (peptide sequence: AGLLPNHRPQLPEGCLPK, peptide start residue: 125)”, 0.268.
To “UniProt Q9CPP0 (peptide sequence: DHDNQEIAVPVANLR, peptide start residue: 88)” belongs -0.235.
As for “UniProt Q9CQ13 (peptide sequence: ETETELAVDR, peptide start residue: 35)”, the figure is 0.195.
Take “UniProt Q9CQF6 (peptide sequence: KLVAEKLNIPWDHIR, peptide start residue: 69)”: the log2 fold change was determined as 0.395.
To “UniProt Q99N16 (peptide sequence: RKPELILR, peptide start residue: 500)” belongs 0.409; to “UniProt Q9CQ19 (peptide sequence: GNFNYVEFTR, peptide start residue: 152)”, 0.135.
To “UniProt Q9CQ40 (peptide sequence: IKGYFDEQLK, peptide start residue: 149)” belongs 0.367.
As to “UniProt Q9CQN6 (peptide sequence: VGISLLSSPHP, peptide start residue: 104)”, the log2 fold change is -0.046.
As for “UniProt Q99N92 (peptide sequence: CLYALEEGIVR, peptide start residue: 88)”, the figure is -0.402.
Take “UniProt Q9CQQ8 (peptide sequence: ESILDLSK, peptide start residue: 10)”: the log2 fold change is -0.0469.
To “UniProt Q9CQ88 (peptide sequence: LQDDTSCSAVCKTK, peptide start residue: 140)” belongs 0.127.
To “UniProt Q99MI1 (peptide sequence: REDSLSDSSQQLQDSLR, peptide start residue: 821)” belongs -0.407; to “UniProt Q9CQJ6 (peptide sequence: WPEVDDDSIEDLGEVKK, peptide start residue: 182)”, 0.544; to “UniProt Q9CQF3 (peptide sequence: GVNQFGNK, peptide start residue: 16)”, -0.113.
As for “UniProt Q9CQE9 (peptide sequence: PQPKPSEQEGESMK, peptide start residue: 2)”, the figure is -0.791.
“UniProt Q9CQ90 (peptide sequence: CKEVLEWR, peptide start residue: 48)”: the log2 fold change was -0.189.
With “UniProt Q99ML9 (peptide sequence: VGNEFSHLCDDSQKQEK, peptide start residue: 59)”, the log2 fold change came to 0.519.
As for “UniProt Q9CQ73 (peptide sequence: SSAVSGNLHR, peptide start residue: 70)”, the figure is -0.247.

Values taken from the supplement of paper PMC12819154, “High-throughput peptide-centric local stability assay extends protein–ligand identification to membrane proteins, tissues and bacteria” (Nature Structural & Molecular Biology, 2025).
